From the supplement of paper PMC12067093, “Discovery and optimisation of a covalent ligand for TRIM25 and its application to targeted protein ubiquitination” (Chemical Science, 2025)
The list shows a part of the results.

Amino acid sequences for entries named in this document (tags omitted). A change or cut given only in a name is not applied to a line headed by its entry.
UniProt Q15942: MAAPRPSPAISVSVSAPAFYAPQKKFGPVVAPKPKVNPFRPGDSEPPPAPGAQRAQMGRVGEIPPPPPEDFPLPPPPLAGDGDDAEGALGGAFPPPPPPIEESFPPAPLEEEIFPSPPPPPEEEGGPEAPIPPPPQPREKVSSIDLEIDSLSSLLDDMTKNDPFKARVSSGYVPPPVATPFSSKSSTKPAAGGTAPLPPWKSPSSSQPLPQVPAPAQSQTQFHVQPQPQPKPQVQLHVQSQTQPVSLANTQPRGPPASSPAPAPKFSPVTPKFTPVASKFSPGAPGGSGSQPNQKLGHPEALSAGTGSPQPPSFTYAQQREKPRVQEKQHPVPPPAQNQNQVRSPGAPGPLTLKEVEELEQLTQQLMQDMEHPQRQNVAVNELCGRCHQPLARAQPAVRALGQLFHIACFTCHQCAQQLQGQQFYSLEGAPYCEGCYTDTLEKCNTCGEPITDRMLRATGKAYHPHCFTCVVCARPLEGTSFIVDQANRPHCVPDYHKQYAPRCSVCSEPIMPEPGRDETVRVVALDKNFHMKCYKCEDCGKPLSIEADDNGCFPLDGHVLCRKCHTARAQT
UniProt Q9P2E3: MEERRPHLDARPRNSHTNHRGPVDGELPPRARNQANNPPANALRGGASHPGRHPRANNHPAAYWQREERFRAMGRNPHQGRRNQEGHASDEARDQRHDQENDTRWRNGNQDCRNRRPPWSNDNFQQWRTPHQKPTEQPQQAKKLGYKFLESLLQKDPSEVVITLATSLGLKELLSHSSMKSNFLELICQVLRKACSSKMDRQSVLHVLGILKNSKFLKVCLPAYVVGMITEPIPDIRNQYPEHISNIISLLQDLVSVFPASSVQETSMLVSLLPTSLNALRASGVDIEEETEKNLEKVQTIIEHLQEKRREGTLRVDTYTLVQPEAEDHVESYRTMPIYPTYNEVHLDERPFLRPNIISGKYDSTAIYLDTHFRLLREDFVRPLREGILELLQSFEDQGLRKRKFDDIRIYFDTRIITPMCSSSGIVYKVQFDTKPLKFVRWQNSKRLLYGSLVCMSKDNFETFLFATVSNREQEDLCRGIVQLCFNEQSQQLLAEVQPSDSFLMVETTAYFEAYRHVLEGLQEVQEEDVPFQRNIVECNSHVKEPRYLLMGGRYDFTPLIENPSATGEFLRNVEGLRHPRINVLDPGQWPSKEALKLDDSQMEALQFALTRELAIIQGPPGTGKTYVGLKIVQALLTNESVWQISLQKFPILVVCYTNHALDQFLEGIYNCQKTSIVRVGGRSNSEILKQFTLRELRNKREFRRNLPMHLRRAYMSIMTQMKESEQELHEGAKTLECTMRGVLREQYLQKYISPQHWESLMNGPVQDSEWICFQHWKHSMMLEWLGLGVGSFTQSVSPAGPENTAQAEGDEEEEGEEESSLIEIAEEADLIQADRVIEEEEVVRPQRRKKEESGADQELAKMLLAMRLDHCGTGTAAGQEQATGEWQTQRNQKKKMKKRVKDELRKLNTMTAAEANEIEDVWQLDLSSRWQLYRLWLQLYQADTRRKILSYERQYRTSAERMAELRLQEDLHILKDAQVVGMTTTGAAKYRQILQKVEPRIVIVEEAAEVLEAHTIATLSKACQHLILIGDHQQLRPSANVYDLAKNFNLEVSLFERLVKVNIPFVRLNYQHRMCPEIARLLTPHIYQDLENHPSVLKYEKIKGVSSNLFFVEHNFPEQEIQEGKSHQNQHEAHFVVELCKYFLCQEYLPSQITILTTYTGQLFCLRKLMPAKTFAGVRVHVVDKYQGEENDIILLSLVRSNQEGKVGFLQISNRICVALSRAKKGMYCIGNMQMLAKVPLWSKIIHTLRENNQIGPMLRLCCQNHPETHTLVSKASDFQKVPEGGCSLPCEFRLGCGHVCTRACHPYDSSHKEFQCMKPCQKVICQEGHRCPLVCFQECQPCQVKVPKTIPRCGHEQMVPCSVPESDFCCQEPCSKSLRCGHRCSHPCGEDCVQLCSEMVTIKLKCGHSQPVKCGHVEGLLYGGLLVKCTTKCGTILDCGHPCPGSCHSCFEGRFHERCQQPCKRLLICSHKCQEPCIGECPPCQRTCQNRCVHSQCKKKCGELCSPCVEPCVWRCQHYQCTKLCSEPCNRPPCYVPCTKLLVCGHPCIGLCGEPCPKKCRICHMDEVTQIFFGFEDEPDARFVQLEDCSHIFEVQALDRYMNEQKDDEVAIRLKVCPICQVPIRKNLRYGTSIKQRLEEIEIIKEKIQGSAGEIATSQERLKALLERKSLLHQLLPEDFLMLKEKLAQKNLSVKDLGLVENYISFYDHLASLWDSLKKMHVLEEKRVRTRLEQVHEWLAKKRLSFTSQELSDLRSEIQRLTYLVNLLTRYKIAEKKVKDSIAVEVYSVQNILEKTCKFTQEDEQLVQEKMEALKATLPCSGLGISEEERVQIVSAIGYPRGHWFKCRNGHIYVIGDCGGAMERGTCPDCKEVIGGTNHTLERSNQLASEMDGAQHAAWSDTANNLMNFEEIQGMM
UniProt Q6NUN9: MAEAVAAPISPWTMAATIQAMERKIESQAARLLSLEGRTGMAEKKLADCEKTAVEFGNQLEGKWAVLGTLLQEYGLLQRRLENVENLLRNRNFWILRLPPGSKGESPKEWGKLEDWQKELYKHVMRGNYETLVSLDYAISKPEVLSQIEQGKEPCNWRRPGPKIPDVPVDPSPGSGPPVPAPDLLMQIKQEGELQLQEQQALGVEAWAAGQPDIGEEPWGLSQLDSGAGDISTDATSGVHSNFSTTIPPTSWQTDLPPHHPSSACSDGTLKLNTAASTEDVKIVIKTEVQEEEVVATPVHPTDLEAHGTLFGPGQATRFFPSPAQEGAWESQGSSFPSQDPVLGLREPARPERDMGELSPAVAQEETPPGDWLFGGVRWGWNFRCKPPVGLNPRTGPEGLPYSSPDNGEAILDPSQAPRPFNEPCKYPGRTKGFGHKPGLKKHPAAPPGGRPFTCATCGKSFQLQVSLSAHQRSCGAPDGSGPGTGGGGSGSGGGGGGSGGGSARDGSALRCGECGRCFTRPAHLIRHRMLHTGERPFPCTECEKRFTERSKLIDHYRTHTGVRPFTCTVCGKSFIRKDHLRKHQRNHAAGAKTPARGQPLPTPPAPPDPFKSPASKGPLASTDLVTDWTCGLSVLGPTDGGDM
UniProt O43149: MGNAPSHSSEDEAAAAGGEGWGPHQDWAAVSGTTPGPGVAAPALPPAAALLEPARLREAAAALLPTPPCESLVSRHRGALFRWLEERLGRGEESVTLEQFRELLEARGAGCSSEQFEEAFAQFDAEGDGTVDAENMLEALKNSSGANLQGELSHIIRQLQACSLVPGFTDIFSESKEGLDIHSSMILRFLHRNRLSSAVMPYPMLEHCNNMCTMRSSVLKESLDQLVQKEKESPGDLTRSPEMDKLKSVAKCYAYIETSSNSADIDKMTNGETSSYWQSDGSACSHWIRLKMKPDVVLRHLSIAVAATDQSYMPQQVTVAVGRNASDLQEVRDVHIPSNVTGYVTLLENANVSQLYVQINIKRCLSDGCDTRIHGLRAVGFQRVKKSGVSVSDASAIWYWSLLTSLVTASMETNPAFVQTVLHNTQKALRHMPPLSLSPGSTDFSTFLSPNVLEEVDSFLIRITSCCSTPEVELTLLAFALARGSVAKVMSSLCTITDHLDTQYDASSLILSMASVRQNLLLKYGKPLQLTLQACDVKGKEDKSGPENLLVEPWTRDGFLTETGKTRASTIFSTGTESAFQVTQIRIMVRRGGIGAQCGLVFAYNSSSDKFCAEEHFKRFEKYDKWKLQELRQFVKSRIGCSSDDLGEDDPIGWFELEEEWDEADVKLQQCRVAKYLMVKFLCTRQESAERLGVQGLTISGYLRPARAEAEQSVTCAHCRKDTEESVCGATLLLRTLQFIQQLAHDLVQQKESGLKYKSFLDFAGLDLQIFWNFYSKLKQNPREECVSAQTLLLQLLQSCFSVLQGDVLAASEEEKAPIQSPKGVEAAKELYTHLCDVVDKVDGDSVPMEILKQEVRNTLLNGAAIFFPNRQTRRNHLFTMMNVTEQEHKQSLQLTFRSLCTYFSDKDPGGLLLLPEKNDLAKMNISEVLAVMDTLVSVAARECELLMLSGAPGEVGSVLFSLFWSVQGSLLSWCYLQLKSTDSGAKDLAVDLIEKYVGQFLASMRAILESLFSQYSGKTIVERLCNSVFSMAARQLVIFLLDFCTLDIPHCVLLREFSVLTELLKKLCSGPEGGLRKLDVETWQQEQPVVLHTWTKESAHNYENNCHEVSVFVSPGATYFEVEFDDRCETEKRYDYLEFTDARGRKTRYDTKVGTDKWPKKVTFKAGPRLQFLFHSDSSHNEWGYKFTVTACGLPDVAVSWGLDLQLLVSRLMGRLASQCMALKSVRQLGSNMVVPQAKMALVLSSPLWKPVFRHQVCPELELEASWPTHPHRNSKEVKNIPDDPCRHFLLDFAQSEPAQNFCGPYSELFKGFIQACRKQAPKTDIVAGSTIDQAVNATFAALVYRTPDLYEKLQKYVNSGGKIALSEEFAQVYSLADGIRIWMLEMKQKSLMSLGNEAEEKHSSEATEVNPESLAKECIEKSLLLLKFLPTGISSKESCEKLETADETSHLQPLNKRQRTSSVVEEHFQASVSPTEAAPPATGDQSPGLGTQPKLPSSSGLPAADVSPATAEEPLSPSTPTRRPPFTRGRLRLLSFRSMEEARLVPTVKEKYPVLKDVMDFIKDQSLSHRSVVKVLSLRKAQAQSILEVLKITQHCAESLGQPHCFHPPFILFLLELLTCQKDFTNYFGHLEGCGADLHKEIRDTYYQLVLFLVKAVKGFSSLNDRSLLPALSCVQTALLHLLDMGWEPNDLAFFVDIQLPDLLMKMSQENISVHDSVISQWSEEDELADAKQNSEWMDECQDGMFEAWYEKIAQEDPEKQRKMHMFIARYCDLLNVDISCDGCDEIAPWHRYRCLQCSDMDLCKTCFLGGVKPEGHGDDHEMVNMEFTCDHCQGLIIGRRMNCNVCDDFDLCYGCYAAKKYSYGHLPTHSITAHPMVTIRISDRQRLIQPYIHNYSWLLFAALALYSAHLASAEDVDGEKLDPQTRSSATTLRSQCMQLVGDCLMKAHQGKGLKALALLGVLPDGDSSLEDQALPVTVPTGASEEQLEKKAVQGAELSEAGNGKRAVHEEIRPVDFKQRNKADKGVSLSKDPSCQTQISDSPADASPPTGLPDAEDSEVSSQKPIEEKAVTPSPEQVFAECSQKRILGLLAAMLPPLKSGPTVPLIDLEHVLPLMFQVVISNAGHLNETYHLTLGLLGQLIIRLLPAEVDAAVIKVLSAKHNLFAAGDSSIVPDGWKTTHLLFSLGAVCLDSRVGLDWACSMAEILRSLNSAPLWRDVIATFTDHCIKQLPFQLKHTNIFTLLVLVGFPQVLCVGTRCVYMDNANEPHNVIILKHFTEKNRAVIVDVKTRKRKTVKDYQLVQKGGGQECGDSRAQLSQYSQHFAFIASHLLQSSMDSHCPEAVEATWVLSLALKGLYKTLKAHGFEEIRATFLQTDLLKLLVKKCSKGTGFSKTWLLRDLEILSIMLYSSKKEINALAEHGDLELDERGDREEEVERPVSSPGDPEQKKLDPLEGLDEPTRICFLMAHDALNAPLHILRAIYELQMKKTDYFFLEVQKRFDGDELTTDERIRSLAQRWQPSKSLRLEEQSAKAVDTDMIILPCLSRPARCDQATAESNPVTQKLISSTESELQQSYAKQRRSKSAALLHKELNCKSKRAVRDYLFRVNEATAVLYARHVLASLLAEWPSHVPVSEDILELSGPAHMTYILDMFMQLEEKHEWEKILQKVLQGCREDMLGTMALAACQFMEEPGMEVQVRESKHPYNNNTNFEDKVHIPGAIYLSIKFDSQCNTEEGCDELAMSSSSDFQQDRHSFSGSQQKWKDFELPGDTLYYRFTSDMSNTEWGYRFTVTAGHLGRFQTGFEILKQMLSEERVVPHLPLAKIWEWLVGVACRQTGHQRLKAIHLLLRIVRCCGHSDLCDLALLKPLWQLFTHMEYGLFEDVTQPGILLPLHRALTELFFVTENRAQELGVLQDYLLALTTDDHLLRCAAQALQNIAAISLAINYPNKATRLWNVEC
UniProt O95218: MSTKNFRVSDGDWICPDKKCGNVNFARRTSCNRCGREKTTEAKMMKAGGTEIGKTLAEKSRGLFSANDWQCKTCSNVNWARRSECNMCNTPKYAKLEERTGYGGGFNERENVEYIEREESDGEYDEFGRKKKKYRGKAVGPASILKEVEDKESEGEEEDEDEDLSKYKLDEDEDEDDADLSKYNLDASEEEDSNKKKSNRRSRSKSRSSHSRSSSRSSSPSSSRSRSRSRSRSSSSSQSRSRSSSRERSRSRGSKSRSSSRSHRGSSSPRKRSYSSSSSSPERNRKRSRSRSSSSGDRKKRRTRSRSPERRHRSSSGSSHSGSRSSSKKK
UniProt O43257, whole entry: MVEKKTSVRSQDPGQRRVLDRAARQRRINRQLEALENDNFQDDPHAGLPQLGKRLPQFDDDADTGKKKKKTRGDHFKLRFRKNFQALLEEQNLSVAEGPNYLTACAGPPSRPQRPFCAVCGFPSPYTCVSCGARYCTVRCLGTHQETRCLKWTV

Compound: CC1Cc2ccccc2N1C(=O)C1CCCN(C1)C(=O)CCl (mixture of isomers) [TRIM25 ligand 11 (diastereomer mixture)]
Assay: probe-labelled cysteine peptide fold change vs DMSO (competition) (log2 fold change); higher = less target engagement (more negative = stronger competition)
Conditions: THP-1, incubation time: 4 h
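Note: competitive chemoproteomic profiling in live THP-1 cells with an iodoacetamide desthiobiotin (IA-DTB) probe, comparing probe-labelled peptide intensities in compound-treated cells against DMSO-treated controls.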

Row | Target | probe-labelled cysteine peptide fold change (10 µM) | probe-labelled cysteine peptide fold change (50 µM)
1 | ZYX_Q15942_467_AYHPHCFTCVVCAR (UniProt Q15942) | -0.0414 | 0.0321
2 | ZNF800_Q2TB10_49_SGIQQIIECFR (UniProt Q2TB10) | -0.12 | -0.00115
3 | ZUP1_Q96AP4_478_VVCTSKPPIYLQHQGHSR (UniProt Q96AP4) | -0.0271 | 0.241
4 | ZNF830_Q96NB3_314_QIGEIDEQIECYR (UniProt Q96NB3) | -0.236 | 0.05
5 | ZYG11B_Q9C0D3_386_NHPMNLPVQLAASACVFNLTK (UniProt Q9C0D3) | -0.118 | -0.118
6 | ZNFX1_Q9P2E3_1591_FVQLEDCSHIFEVQALDR (UniProt Q9P2E3) | 0.0663 | -0.0266
7 | ZNF76_P36508_292_THTGERPYTCPEPHCGR (UniProt P36508) | 0.0325 | 0.116
8 | ZYX_Q15942_540+562_CEDCGKPLSIEADDNGCFPLDGHVLCR (UniProt Q15942) | -0.0469 | -0.249
9 | ZNF746_Q6NUN9_518_CFTRPAHLIR (UniProt Q6NUN9) | -0.0514 | 0.023
10 | ZNF787_Q6DD87_180_SHSGLKPFVCPR (UniProt Q6DD87) | -0.0374 | 0.0143
11 | ZNRD1_Q9P1U0_90_CGHEGMAYHTR (UniProt Q9P1U0) | -0.117 | -0.117
12 | ZZEF1_O43149_2932_CAAQALQNIAAISLAINYPNK (UniProt O43149) | 0.109 | 0.032
13 | ZNFX1_Q9P2E3_1416_CGHVEGLLYGGLLVK (UniProt Q9P2E3) | -0.0464 | -0.153
14 | ZZZ3_Q8IYH5_104_QAIENCER (UniProt Q8IYH5) | 0.0915 | -0.159
15 | ZNHIT3_Q15649_42_EQCNPETRPVEK (UniProt Q15649) | -0.0198 | 0.0505
16 | ZYX_Q15942_444_CNTCGEPITDR (UniProt Q15942) | -0.134 | -0.071
17 | ZRANB2_O95218_20_KCGNVNFAR (UniProt O95218) | -0.118 | -0.137
18 | ZNFX1_Q9P2E3_1860_NGHIYVIGDCGGAMER (UniProt Q9P2E3) | -0.0816 | -0.0183
19 | ZRANB2_O95218_85_RSECNMCNTPK (UniProt O95218) | -0.125 | -0.22
20 | ZYX_Q15942_553+562_PLSIEADDNGCFPLDGHVLCR (UniProt Q15942) | 0.201 | 0.0148
21 | ZNHIT1_O43257_140_CLGTHQETR (UniProt O43257) | 0.0173 | -0.0417

Reformatted: entries from further up
Row,Target,probe-labelled cysteine peptide fold change (10 µM),probe-labelled cysteine peptide fold change (50 µM)
12,ZZEF1_O43149_2932_CAAQALQNIAAISLAINYPNK (UniProt O43149),0.109,0.032
13,ZNFX1_Q9P2E3_1416_CGHVEGLLYGGLLVK (UniProt Q9P2E3),-0.0464,-0.153
